Source: PubChem BioAssay AID248 (DTP/NCI, 2004)
The list is a part of this screen's results and no random one: it gathers tests that were run many times, whatever their T/C, doses with no T/C, and many T/C values between a quarter and a half above the control. Further doses and runs are listed elsewhere. T/C is the treated group as % of the vehicle group. Some entries give survivors of the animals treated and no T/C: the source files T/C as zero there, which appears to mark a toxic dose or a test without result, not a measured value. Some survivor counts are full or nearly so, which does not show that the dose was tolerated: survival well below the control is almost never listed, so the zero probably covers shortened survival too. Survivors were counted at the toxicity check, usually on the fifth day, unless a day is given; later deaths do not show. Schedule codes are those of the source, taken here to give the interval after Q, in days (D) or hours (H), and the number of doses after X. Some doses were run more than once; the values are given in rising order. Where survival is the endpoint, the PubChem record calls one and a half times the control and up active, and a quarter to a half above the control has no call in these data; cut-offs in other NCI protocols can differ.

System: L1210 leukemia ip in BDF1 mice, survival T/C
Test: NCI In Vivo Anticancer Drug Screen. Data for tumor model L1210 Leukemia (intraperitoneal) in B6D2F1 (BDF1) mice
Conditions: higher T/C = longer survival
[1] = T/C endpoint: mean survival time, dose: 16.0 mg/kg/injection, schedule: Q04DX003 (ip), vehicle: saline
[2] = T/C endpoint: mean survival time, dose: 24.0 mg/kg/injection, schedule: Q01DX001 (ip), vehicle: saline

`OC(C1CO1)C(O)C1CO1` (stereo not drawn) was tested, and the survivor count (T/C endpoint: mean survival time, dose: 16.0 mg/kg/injection, schedule: Q01DX009 (oral), vehicle: saline) was 3 of 10, the survivor count (T/C endpoint: mean survival time, dose: 16.0 mg/kg/injection, schedule: Q01DX009 (sc), vehicle: saline) was 2 of 10 and the T/C [1] was 144 % of control. For the same molecule, the survivor count [1] was 1 of 6, 6 of 10, 8 of 10, the survivor count (T/C endpoint: mean survival time, dose: 16.0 mg/kg/injection, schedule: Q08DX002 (ip), vehicle: saline) was 6 of 10 and 4 of 6 and the survivor count (T/C endpoint: mean survival time, dose: 16.5 mg/kg/injection, schedule: Q01DX009 (ip), vehicle: saline) was 5 of 6. For the same molecule, the survivor count (T/C endpoint: mean survival time, dose: 21.0 mg/kg/injection, schedule: Q01DX001 (ip), vehicle: saline) was 4 of 6, the T/C [2] was 136 % of control and the survivor count [2] was 4 of 6. For the same molecule, the survivor count (T/C endpoint: mean survival time, dose: 24.0 mg/kg/injection, schedule: Q01DX009 (ip), vehicle: saline) was 6 of 6, the survivor count (T/C endpoint: mean survival time, dose: 24.0 mg/kg/injection, schedule: Q04DX003 (ip), vehicle: saline) was 0 of 6 and the survivor count (T/C endpoint: mean survival time, dose: 24.0 mg/kg/injection, schedule: Q08DX002 (ip), vehicle: saline) was 4 of 6. The survivor count (T/C endpoint: mean survival time, dose: 25.0 mg/kg/injection, schedule: Q01DX009 (ip), vehicle: saline) was 6 of 6, the survivor count (T/C endpoint: mean survival time, dose: 32.0 mg/kg/injection, schedule: Q01DX001 (ip), vehicle: saline) was 1 of 10 and the survivor count (T/C endpoint: mean survival time, dose: 32.0 mg/kg/injection, schedule: Q01DX001 (oral), vehicle: saline) was 3 of 10. The survivor count (T/C endpoint: mean survival time, dose: 32.0 mg/kg/injection, schedule: Q01DX001 (sc), vehicle: saline) was 0 of 10, the survivor count (T/C endpoint: mean survival time, dose: 32.0 mg/kg/injection, schedule: Q01DX009 (oral), vehicle: saline) was 5 of 10 and the survivor count (T/C endpoint: mean survival time, dose: 32.0 mg/kg/injection, schedule: Q08DX002 (ip), vehicle: saline) was 1 of 10. The survivor count (T/C endpoint: mean survival time, dose: 42.0 mg/kg/injection, schedule: Q01DX009 (ip), vehicle: saline) was 1 of 6, the survivor count (T/C endpoint: mean survival time, dose: 50.0 mg/kg/injection, schedule: Q01DX009 (ip), vehicle: saline) was 6 of 6 and the survivor count (T/C endpoint: mean survival time, dose: 63.0 mg/kg/injection, schedule: Q01DX009 (ip), vehicle: saline) was 3 of 6. For the same molecule, the survivor count (T/C endpoint: mean survival time, dose: 64.0 mg/kg/injection, schedule: Q01DX001 (oral), vehicle: saline) was 2 of 10, the survivor count (T/C endpoint: mean survival time, dose: 64.0 mg/kg/injection, schedule: Q01DX001 (sc), vehicle: saline) was 0 of 10 and the survivor count (T/C endpoint: mean survival time, dose: 64.0 mg/kg/injection, schedule: Q01DX009 (oral), vehicle: saline) was 3 of 10. The survivor count (T/C endpoint: mean survival time, dose: 75.0 mg/kg/injection, schedule: Q01DX001 (ip), vehicle: saline) was 5 of 6, the survivor count (T/C endpoint: mean survival time, dose: 94.0 mg/kg/injection, schedule: Q01DX009 (ip), vehicle: saline) was 4 of 6 and the survivor count (T/C endpoint: mean survival time, dose: 100.0 mg/kg/injection, schedule: Q01DX009 (ip), vehicle: water) was 9 of 10. The survivor count (T/C endpoint: mean survival time, dose: 100.0 mg/kg/injection, schedule: Q04DX003 (ip), vehicle: saline) was 4 of 6, the survivor count (T/C endpoint: mean survival time, dose: 118.0 mg/kg/injection, schedule: Q01DX001 (ip), vehicle: saline) was 0 of 6 and the survivor count (T/C endpoint: mean survival time, dose: 118.0 mg/kg/injection, schedule: Q04DX003 (ip), vehicle: saline) was 3 of 6. For the same molecule, the survivor count (T/C endpoint: mean survival time, dose: 128.0 mg/kg/injection, schedule: Q01DX001 (oral), vehicle: saline) was 3 of 10, the survivor count (T/C endpoint: mean survival time, dose: 140.0 mg/kg/injection, schedule: Q01DX009 (ip), vehicle: saline) was 5 of 6 and the survivor count (T/C endpoint: mean survival time, dose: 150.0 mg/kg/injection, schedule: Q01DX001 (ip), vehicle: saline) was 5 of 6. The survivor count (T/C endpoint: mean survival time, dose: 177.0 mg/kg/injection, schedule: Q01DX001 (ip), vehicle: saline) was 3 of 6, the survivor count (T/C endpoint: mean survival time, dose: 177.0 mg/kg/injection, schedule: Q04DX003 (ip), vehicle: saline) was 5 of 6 and the survivor count (T/C endpoint: mean survival time, dose: 177.0 mg/kg/injection, schedule: Q08DX002 (ip), vehicle: saline) was 2 of 6. The survivor count (T/C endpoint: mean survival time, dose: 200.0 mg/kg/injection, schedule: Q04DX003 (ip), vehicle: saline) was 6 of 6, the survivor count (T/C endpoint: mean survival time, dose: 210.0 mg/kg/injection, schedule: Q01DX009 (ip), vehicle: saline) was 6 of 6 and the survivor count (T/C endpoint: mean survival time, dose: 256.0 mg/kg/injection, schedule: Q01DX001 (oral), vehicle: saline) was 0 of 10. The survivor count (T/C endpoint: mean survival time, dose: 266.0 mg/kg/injection, schedule: Q01DX001 (ip), vehicle: saline) was 4 of 6, the survivor count (T/C endpoint: mean survival time, dose: 266.0 mg/kg/injection, schedule: Q04DX003 (ip), vehicle: saline) was 4 of 6 and the survivor count (T/C endpoint: mean survival time, dose: 266.0 mg/kg/injection, schedule: Q08DX002 (ip), vehicle: saline) was 4 of 6. The survivor count (T/C endpoint: mean survival time, dose: 300.0 mg/kg/injection, schedule: Q01DX001 (ip), vehicle: saline) was 1 of 6, the survivor count (T/C endpoint: mean survival time, dose: 400.0 mg/kg/injection, schedule: Q01DX001 (ip), vehicle: saline) was 5 of 6 and the survivor count (T/C endpoint: mean survival time, dose: 400.0 mg/kg/injection, schedule: Q01DX009 (ip), vehicle: water) was 0 of 10 and 10 of 10. For the same molecule, the survivor count (T/C endpoint: mean survival time, dose: 400.0 mg/kg/injection, schedule: Q04DX003 (ip), vehicle: saline) was 1 of 6 and 6 of 6, the survivor count (T/C endpoint: mean survival time, dose: 400.0 mg/kg/injection, schedule: Q08DX002 (ip), vehicle: saline) was 5 of 6 and the T/C (T/C endpoint: median survival time, dose: 1.0 mg/kg/injection, schedule: Q01DX009 (ip), vehicle: water) was 138 % of control. For the same molecule, the T/C (T/C endpoint: median survival time, dose: 2.0 mg/kg/injection, schedule: Q01DX009 (sc), vehicle: water) was 144 % of control, the T/C (T/C endpoint: median survival time, dose: 5.0 mg/kg/injection, schedule: Q01DX001 (ip), vehicle: water) was 142 % of control and the survivor count (T/C endpoint: median survival time, dose: 8.0 mg/kg/injection, schedule: Q01DX009 (ip), vehicle: water) was 7 of 8. For the same molecule, the survivor count (T/C endpoint: median survival time, dose: 8.0 mg/kg/injection, schedule: Q01DX009 (sc), vehicle: water) was 8 of 8, the survivor count (T/C endpoint: median survival time, dose: 16.0 mg/kg/injection, schedule: Q01DX009 (ip), vehicle: water) was 7 of 8 and the survivor count (T/C endpoint: median survival time, dose: 16.0 mg/kg/injection, schedule: Q01DX009 (sc), vehicle: water) was 3 of 8. The survivor count (T/C endpoint: median survival time, dose: 16.0 mg/kg/injection, schedule: Q04DX003 (ip), vehicle: water) was 3 of 8, the survivor count (T/C endpoint: median survival time, dose: 16.0 mg/kg/injection, schedule: Q04DX003 (sc), vehicle: water) was 4 of 8 and the survivor count (T/C endpoint: median survival time, dose: 32.0 mg/kg/injection, schedule: Q04DX003 (ip), vehicle: water) was 2 of 8. The survivor count (T/C endpoint: median survival time, dose: 32.0 mg/kg/injection, schedule: Q04DX003 (sc), vehicle: water) was 3 of 8.
